This is one part of the list.
Assays:
Experiment in all cases: log2 fold change, soluble protein after heating vs DMSO (PISA); higher = thermal stabilisation; K562 lysate, 10 uM; active = over 0.2 and 3.5 SD of the protein, either way, in both replicates (recomputed)
erlotinib = compound: C#Cc1cccc(Nc2ncnc3cc(OCCOC)c(OCCOC)cc23)c1 [erlotinib]
Procedure, shortened: (§1)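 Thermal stability, expressed as log-two fold change relative to solvent controls, is given from duplicates. Crude K562 extract in PBS pH 7.4 with 1 mM MgCl2, at 1 mg/mL protein, was treated with 10 μM compound for 30 min and heated in aliquots for 3 min across 48°C-58°C. After pooling, adjustment to 0.5% NP-40 at 4°C and centrifugation at 21,000xg for 90 min, supernatant protein was measured by TMTpro 16plex LC-MS/MS with channel sums equalised.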

Amino acid sequences for entries named in this document (tags omitted). A change or cut given only in a name is not applied to a line headed by its entry.
UniProt Q15427: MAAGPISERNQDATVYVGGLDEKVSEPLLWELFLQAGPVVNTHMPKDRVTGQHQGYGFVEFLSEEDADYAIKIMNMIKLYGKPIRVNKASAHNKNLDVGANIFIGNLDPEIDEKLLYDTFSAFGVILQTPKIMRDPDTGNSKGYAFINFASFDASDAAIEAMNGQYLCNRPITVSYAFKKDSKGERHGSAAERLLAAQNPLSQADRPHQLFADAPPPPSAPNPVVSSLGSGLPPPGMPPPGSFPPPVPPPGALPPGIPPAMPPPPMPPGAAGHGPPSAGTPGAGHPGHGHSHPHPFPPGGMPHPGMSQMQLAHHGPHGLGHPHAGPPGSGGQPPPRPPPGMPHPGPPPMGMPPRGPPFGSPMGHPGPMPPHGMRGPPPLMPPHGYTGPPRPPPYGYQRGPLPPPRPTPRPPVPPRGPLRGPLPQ
UniProt P01008, whole entry, looked up: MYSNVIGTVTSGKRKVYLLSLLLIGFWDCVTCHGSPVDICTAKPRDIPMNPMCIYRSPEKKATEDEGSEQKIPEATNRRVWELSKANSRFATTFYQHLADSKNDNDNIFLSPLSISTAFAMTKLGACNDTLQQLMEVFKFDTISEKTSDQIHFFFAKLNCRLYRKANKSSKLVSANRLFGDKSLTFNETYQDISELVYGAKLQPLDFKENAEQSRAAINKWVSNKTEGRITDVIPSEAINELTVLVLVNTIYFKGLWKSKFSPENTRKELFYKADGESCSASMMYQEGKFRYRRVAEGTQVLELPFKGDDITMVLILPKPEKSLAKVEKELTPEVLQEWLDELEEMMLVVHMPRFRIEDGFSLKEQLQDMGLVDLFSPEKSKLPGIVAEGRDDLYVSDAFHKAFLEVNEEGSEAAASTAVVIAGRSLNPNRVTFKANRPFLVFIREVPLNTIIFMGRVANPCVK
UniProt Q0GE19: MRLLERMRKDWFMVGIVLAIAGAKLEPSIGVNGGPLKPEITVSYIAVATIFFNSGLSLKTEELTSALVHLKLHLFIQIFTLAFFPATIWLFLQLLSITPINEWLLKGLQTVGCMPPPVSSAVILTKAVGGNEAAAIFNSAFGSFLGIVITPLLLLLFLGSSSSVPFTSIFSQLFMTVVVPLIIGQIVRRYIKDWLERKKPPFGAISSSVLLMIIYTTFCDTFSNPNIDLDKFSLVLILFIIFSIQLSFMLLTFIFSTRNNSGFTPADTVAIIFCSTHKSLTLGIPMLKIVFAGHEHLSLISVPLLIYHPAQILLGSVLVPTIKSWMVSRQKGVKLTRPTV
UniProt P55822: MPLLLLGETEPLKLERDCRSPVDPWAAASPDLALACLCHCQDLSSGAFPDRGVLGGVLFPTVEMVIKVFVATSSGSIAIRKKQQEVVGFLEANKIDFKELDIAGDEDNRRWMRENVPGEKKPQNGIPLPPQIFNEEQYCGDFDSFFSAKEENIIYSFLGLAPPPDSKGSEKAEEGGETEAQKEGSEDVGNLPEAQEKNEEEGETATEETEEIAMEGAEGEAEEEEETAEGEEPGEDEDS
UniProt Q9NXA8: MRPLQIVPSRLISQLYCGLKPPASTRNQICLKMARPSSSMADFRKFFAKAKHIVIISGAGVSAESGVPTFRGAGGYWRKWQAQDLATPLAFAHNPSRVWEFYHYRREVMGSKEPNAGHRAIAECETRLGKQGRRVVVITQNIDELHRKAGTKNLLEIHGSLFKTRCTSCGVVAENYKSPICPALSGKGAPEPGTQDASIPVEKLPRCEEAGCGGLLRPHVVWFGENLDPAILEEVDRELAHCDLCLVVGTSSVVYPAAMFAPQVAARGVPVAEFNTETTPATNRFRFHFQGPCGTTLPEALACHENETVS
UniProt Q86TU7: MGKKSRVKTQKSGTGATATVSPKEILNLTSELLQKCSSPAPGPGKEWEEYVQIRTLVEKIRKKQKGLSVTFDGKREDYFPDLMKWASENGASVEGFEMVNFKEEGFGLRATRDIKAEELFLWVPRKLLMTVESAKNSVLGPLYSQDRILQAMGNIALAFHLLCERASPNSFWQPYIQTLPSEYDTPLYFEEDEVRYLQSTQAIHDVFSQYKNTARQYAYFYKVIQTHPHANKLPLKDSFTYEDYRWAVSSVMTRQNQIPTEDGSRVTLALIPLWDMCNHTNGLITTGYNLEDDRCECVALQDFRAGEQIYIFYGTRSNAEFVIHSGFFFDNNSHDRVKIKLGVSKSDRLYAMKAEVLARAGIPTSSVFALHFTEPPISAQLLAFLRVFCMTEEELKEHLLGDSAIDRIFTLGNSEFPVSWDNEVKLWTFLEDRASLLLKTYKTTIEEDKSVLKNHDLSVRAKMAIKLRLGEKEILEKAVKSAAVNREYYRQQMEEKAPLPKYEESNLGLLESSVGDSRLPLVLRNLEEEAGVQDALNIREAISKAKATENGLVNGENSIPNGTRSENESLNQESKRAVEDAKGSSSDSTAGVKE
UniProt Q99720, whole entry, looked up: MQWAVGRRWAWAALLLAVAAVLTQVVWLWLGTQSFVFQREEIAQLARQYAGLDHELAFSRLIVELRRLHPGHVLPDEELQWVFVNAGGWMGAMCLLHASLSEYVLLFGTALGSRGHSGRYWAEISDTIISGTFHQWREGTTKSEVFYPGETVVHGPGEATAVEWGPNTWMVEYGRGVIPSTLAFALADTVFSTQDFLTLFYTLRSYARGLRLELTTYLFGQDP
UniProt O60239: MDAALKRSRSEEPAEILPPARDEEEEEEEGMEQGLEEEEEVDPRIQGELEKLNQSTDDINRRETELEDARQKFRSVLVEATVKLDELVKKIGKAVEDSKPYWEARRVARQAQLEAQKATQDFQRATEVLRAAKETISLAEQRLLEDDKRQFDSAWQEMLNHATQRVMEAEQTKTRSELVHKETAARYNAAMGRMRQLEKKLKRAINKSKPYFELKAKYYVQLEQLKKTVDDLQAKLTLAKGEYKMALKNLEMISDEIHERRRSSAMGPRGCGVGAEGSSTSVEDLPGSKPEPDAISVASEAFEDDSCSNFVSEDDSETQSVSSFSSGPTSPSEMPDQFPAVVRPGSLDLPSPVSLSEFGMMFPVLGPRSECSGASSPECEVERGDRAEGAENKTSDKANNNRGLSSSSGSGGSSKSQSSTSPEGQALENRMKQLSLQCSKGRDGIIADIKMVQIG
UniProt Q96ST3: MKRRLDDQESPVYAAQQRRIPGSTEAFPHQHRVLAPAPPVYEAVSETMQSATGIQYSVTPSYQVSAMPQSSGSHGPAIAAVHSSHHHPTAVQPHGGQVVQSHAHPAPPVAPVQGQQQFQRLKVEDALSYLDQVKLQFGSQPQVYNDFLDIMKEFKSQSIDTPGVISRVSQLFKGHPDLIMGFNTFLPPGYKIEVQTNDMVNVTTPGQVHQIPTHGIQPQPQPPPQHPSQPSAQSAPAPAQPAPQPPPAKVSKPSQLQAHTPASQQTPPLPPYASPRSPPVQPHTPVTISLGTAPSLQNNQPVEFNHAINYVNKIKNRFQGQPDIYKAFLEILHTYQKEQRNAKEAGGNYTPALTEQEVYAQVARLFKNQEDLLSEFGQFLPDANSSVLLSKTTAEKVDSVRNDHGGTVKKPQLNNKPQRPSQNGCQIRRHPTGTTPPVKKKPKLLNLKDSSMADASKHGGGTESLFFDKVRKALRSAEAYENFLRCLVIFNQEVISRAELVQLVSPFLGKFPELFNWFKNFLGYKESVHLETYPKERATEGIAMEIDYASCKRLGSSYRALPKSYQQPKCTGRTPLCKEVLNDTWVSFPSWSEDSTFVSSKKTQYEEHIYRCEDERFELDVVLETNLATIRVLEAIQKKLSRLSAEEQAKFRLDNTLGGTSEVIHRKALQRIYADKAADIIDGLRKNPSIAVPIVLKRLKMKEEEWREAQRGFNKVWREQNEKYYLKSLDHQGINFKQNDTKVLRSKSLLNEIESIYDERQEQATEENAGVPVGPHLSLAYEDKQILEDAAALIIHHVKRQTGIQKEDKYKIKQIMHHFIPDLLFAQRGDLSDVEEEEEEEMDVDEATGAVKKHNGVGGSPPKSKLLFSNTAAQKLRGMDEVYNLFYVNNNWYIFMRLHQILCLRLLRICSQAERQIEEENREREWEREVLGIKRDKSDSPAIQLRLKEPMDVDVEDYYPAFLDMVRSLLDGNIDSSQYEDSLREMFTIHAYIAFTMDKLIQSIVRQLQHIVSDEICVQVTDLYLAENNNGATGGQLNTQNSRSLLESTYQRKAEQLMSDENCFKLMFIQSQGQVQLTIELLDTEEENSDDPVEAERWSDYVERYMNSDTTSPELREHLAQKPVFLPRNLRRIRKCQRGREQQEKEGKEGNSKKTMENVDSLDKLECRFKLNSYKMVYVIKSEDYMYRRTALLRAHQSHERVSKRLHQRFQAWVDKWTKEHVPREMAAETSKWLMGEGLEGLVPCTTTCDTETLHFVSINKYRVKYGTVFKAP
UniProt Q6P4A7: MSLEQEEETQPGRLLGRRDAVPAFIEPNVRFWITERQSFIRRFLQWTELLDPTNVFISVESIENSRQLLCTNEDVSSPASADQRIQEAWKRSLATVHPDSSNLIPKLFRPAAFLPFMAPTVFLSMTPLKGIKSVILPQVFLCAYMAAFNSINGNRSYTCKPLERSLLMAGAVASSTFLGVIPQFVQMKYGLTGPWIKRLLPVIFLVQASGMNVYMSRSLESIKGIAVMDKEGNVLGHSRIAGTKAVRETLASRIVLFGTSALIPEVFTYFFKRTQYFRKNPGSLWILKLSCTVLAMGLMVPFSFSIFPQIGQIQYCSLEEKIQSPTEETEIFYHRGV
UniProt Q9NRA2: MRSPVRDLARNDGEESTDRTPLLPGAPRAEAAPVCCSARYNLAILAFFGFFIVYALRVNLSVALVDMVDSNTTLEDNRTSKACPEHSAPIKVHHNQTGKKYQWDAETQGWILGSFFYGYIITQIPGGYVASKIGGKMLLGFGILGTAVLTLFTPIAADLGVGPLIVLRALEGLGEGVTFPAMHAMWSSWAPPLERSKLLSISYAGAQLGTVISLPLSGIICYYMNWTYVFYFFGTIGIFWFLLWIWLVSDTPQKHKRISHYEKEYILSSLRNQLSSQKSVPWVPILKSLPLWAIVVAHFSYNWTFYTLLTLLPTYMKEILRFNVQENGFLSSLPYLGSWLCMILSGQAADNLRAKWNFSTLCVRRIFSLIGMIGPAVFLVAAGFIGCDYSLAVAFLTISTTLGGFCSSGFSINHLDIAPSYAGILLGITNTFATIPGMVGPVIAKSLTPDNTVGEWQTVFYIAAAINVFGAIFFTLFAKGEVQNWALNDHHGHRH
UniProt Q9H299: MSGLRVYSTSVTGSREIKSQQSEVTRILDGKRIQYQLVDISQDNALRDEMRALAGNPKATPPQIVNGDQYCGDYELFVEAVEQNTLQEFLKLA
UniProt P43007: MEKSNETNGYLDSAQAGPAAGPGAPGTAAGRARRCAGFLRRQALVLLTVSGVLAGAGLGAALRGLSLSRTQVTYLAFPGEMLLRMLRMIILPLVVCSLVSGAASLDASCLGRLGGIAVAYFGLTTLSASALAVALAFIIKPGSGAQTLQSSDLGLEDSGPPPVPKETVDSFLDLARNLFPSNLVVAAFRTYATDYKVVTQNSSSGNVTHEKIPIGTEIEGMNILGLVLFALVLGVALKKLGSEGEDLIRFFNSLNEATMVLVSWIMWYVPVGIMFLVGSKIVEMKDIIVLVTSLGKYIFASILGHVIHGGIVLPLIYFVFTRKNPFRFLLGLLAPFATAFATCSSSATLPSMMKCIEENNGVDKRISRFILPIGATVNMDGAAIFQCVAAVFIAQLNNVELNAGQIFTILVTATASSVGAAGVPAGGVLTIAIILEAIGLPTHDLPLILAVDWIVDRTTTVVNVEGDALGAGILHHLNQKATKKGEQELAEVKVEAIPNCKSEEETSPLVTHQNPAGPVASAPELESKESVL

[1] = compound: C/C(=N\NC(=O)C1=CC(=CC=C1)S(=O)(=O)N2CCOCC2)/C3=C(C=CC(=C3)Cl)O
Procedure, shortened: as §1

[2] = compound: C1=CC(=CC=C1C2=NC3=C(N2)C=C(C=C3)C(=O)N)OC4=CC=C(C=C4)Cl
Procedure, shortened: as §1

[3] = compound: C1=CC2=C(C=CC(=C2)/C=C\3/C(=O)NC(=NCC4=CC=CS4)S3)N=C1
Procedure, shortened: as §1

[4] = compound: C1=CC2=NC=CN=C2C=C1/C=C/3\C(=O)NC(=O)S3
Procedure, shortened: as §1

[5] = compound: C1=CC=C(C=C1)C2=NC(=C(N2)C3=CC=NC=C3)C4=CC(=C(C=C4)Cl)O
Procedure, shortened: as §1

[6] = compound: C1=CC=C2C(=C1)C3=NNC4=CC=CC(=C43)C2=O
Procedure, shortened: as §1

[7] = compound: C1CCN(C1)C(=O)NC2=CC=CC(=C2)NC3=NC=C(C(=N3)NCCC4=CN=CN4)Br
Procedure, shortened: as §1

[8] = compound: C1CN(CCC1(CC2=CC=C(C=C2)Cl)N)C3=NC=NC4=C3C=CN4
Procedure, shortened: as §1

IRAK-1-4 Inhibitor I = compound: C1COCCN1CCN2C3=CC=CC=C3N=C2NC(=O)C4=CC(=CC=C4)[N+](=O)[O-] [IRAK-1-4 Inhibitor I]
Procedure, shortened: as §1

ibrutinib = compound: C=CC(=O)N1CCC[C@@H](n2nc(-c3ccc(Oc4ccccc4)cc3)c3c(N)ncnc32)C1 [ibrutinib]
Procedure, shortened: as §1

[9] = compound: CC(=O)c1cnc2ccc(-c3cc(Cl)c(O)c(Cl)c3)nc2c1N[C@H]1CC[C@H](CN(C)C)CC1
Procedure, shortened: as §1

ralimetinib = compound: CC(C)(C)Cn1c(N)nc2ccc(-c3[nH]c(C(C)(C)C)nc3-c3ccc(F)cc3)nc21 [ralimetinib]
Procedure, shortened: as §1

[10] = compound: CC(C)(O)CC(=O)NCCn1ccc2ncnc(Nc3ccc(Oc4cccc(C(F)(F)F)c4)c(Cl)c3)c21
Procedure, shortened: as §1

[11] = compound: CC(C)C1=C2N=C(C=C(N2N=C1)NCC3=CC=CC=C3)NCCCCCCN
Procedure, shortened: as §1

[12] = compound: CC1=C(C(CC(=O)N1)C2=CC=C(C=C2)C(F)(F)F)C(=O)NC3=C(C=C4C(=C3)C=NN4)F
Procedure, shortened: as §1

[13] = compound: CC1=C(C2=C(C=C1)C(=O)C3=CC=CC=C3N2CCCN)C
Procedure, shortened: as §1

[14] = compound: CC1=C(C=C(C=C1)NC(=O)C2=CC(=CC=C2)C(C)(C)C#N)NC3=CC4=C(C=C3)N=CN(C4=O)C
Procedure, shortened: as §1

[15] = compound: CC1=C(C=C(C=C1)NC(=O)C2=CC(=CC=C2)N(C)C)NC(=O)C3=CC=C(C=C3)O
Procedure, shortened: as §1

[16] = compound: CC1=CC=C(C=C1)SC2=C3C=C(SC3=CN=C2)C(=O)N
Procedure, shortened: as §1

Measured: log2 fold change

SF3B4 (UniProt Q15427)
inactive: erlotinib 0.048 | [1] -0.042 | [2] 0.031 | [3] 0.022 | [4] -0.017 | [5] -0.012 | [6] -0.04 | [7] -0.013 | [8] 0.049 | IRAK-1-4 Inhibitor I 0.016 | ibrutinib 0.003 | [9] -0.005 | ralimetinib -0.023 | [10] -0.061 | [11] -0.054 | [12] -0.033 | [13] 0.006 | [14] 0.002 | [15] 0.032 | [16] -0.031

SERPINC1 (UniProt P01008)
inactive: erlotinib -0.03 | [1] -0.075 | [2] 0.038 | [3] -0.025 | [4] 0.046 | [5] 0.124 | [6] -0.026 | [7] 0.054 | [8] 0.032 | IRAK-1-4 Inhibitor I -0.055 | ibrutinib -0.075 | [9] -0.042 | ralimetinib 0 | [10] -0.079 | [11] 0.007 | [12] 0.038 | [13] 0.009 | [14] 0.013 | [15] -0.146 | [16] -0.062

SLC10A7 isoform 1 (UniProt Q0GE19)
inactive: erlotinib 0.054 | [1] -0.015 | [2] -0.02 | [3] -0.043 | [4] 0.066 | [5] 0.066 | [6] -0.018 | [7] -0.04 | [8] 0.088 | IRAK-1-4 Inhibitor I 0.002 | ibrutinib 0.078 | [9] -0.014 | ralimetinib -0.015 | [10] -0.056 | [11] -0.047 | [12] -0.015 | [13] -0.019 | [14] -0.051 | [15] 0.015 | [16] 0.046

SH3BGR (UniProt P55822)
inactive: erlotinib 0.03 | [1] -0.008 | [2] 0.04 | [3] -0.02 | [4] 0.011 | [5] -0.018 | [6] 0.029 | [7] 0.014 | [8] 0 | IRAK-1-4 Inhibitor I 0.027 | ibrutinib -0.004 | [9] -0.023 | ralimetinib -0.023 | [10] 0.025 | [11] -0.062 | [12] 0 | [13] 0.079 | [14] 0.047 | [15] 0.021 | [16] -0.014

SIRT5 (UniProt Q9NXA8)
inactive: erlotinib -0.022 | [1] 0.066 | [2] 0.017 | [3] 0.029 | [4] 0.004 | [5] -0.022 | [6] -0.036 | [7] 0.016 | [8] 0.026 | IRAK-1-4 Inhibitor I 0.023 | ibrutinib 0.056 | [9] 0.017 | ralimetinib 0.029 | [10] 0.039 | [11] 0.002 | [12] 0.004 | [13] 0.029 | [14] 0.008 | [15] 0.013 | [16] -0.035

SETD3 (UniProt Q86TU7)
inactive: erlotinib -0.045 | [1] 0.04 | [2] 0.005 | [3] 0.014 | [4] -0.039 | [5] 0.019 | [6] -0.007 | [7] -0.026 | [8] -0.018 | IRAK-1-4 Inhibitor I -0.059 | ibrutinib -0.001 | [9] -0.012 | ralimetinib -0.004 | [10] 0.015 | [11] -0.009 | [12] 0.027 | [13] 0 | [14] -0.022 | [15] 0.037 | [16] 0.012

SIGMAR1 (UniProt Q99720)
inactive: erlotinib -0.02 | [1] -0.034 | [2] 0.022 | [3] 0.07 | [4] 0.003 | [5] 0.06 | [6] -0.02 | [7] 0.027 | [8] 0.022 | IRAK-1-4 Inhibitor I -0.002 | ibrutinib 0.022 | [9] 0.029 | ralimetinib 0.034 | [10] -0.011 | [11] -0.034 | [12] 0.047 | [13] -0.036 | [14] 0.06 | [15] -0.009 | [16] -0.004

SH3BP5 (UniProt O60239)
inactive: erlotinib -0.048 | [1] -0.043 | [2] 0.052 | [3] -0.069 | [4] 0.009 | [5] 0.053 | [6] -0.088 | [7] 0.007 | [8] -0.001 | IRAK-1-4 Inhibitor I -0.036 | ibrutinib -0.034 | [9] -0.056 | ralimetinib -0.009 | [10] -0.094 | [11] -0.045 | [12] -0.038 | [13] 0.007 | [14] -0.004 | [15] -0.019 | [16] -0.072

2 consecutive entries already listed:
SETD3 (UniProt Q86TU7)
inactive: erlotinib -0.045 | [1] 0.04 | [2] 0.005 | [3] 0.014 | [4] -0.039 | [5] 0.019 | [6] -0.007 | [7] -0.026 | [8] -0.018 | IRAK-1-4 Inhibitor I -0.059 | ibrutinib -0.001 | [9] -0.012 | ralimetinib -0.004 | [10] 0.015 | [11] -0.009 | [12] 0.027 | [13] 0 | [14] -0.022 | [15] 0.037 | [16] 0.012

SIGMAR1 (UniProt Q99720)
inactive: erlotinib -0.02 | [1] -0.034 | [2] 0.022 | [3] 0.07 | [4] 0.003 | [5] 0.06 | [6] -0.02 | [7] 0.027 | [8] 0.022 | IRAK-1-4 Inhibitor I -0.002 | ibrutinib 0.022 | [9] 0.029 | ralimetinib 0.034 | [10] -0.011 | [11] -0.034 | [12] 0.047 | [13] -0.036 | [14] 0.06 | [15] -0.009 | [16] -0.004

(cont.)

SIN3A (UniProt Q96ST3)
inactive: erlotinib 0.01 | [1] -0.043 | [2] -0.005 | [3] -0.007 | [4] 0.009 | [5] 0.013 | [6] -0.004 | [7] -0.011 | [8] 0.008 | IRAK-1-4 Inhibitor I 0.017 | ibrutinib 0.016 | [9] -0.004 | ralimetinib 0.007 | [10] -0.017 | [11] 0.015 | [12] -0.04 | [13] -0.021 | [14] -0.001 | [15] 0 | [16] 0.015

SERPINB6, A0A087X1N8
inactive: erlotinib -0.003 | [1] -0.003 | [2] 0.032 | [3] 0.014 | [4] -0.013 | [5] -0.012 | [6] -0.007 | [7] 0.001 | [8] 0.018 | IRAK-1-4 Inhibitor I 0.016 | ibrutinib 0.022 | [9] -0.014 | ralimetinib -0.02 | [10] -0.011 | [11] -0.026 | [12] 0 | [13] -0.01 | [14] -0.01 | [15] 0.007 | [16] -0.021

SFXN4 isoform 3 (UniProt Q6P4A7)
inactive: erlotinib -0.147 | [1] -0.322 | [2] 0.104 | [3] -0.143 | [4] -0.002 | [5] 0.089 | [6] -0.091 | [7] -0.122 | [8] 0.236 | IRAK-1-4 Inhibitor I 0.016 | ibrutinib 0.144 | ralimetinib -0.069 | [10] -0.151 | [11] 0.013 | [12] -0.339 | [14] -0.046 | [15] -0.084

SLC17A5 (UniProt Q9NRA2)
inactive: erlotinib -0.039 | [1] 0.135 | [2] 0.053 | [3] 0.087 | [4] -0.053 | [5] -0.044 | [6] 0.099 | [7] -0.13 | [8] 0.04 | IRAK-1-4 Inhibitor I 0.141 | ibrutinib 0.176 | [9] 0.081 | ralimetinib -0.054 | [10] -0.073 | [11] 0.07 | [12] -0.056 | [13] 0.019 | [15] 0.021 | [16] -0.07

SH3BGRL3 (UniProt Q9H299)
inactive: erlotinib -0.037 | [1] 0.013 | [2] -0.043 | [3] -0.019 | [4] 0.026 | [5] -0.018 | [6] 0.011 | [7] 0.048 | [8] 0.053 | IRAK-1-4 Inhibitor I 0 | ibrutinib 0.059 | [9] -0.026 | ralimetinib -0.013 | [10] -0.032 | [11] 0.005 | [12] -0.013 | [13] 0.003 | [14] 0.02 | [15] -0.041 | [16] 0.022

SETDB1 (UniProt Q15047)
inactive: erlotinib -0.026 | [1] -0.039 | [2] 0.046 | [3] -0.004 | [4] -0.003 | [5] 0.017 | [6] -0.066 | [7] 0.007 | [8] 0.046 | IRAK-1-4 Inhibitor I 0.037 | ibrutinib 0.005 | [9] -0.013 | ralimetinib -0.043 | [10] -0.063 | [11] -0.003 | [12] 0.008 | [13] -0.028 | [14] 0.048 | [15] -0.014 | [16] -0.053

SLC1A4 (UniProt P43007)
inactive: erlotinib 0.004 | [1] -0.018 | [2] 0.041 | [3] 0.005 | [4] 0.001 | [5] -0.023 | [6] -0.024 | [7] -0.015 | [8] -0.008 | IRAK-1-4 Inhibitor I -0.015 | ibrutinib -0.036 | [9] -0.005 | ralimetinib -0.041 | [10] -0.064 | [11] -0.02 | [12] -0.022 | [13] -0.01 | [14] -0.016 | [15] 0.023 | [16] -0.007

— the supplement of paper PMC10849652
